The list shows a part of the results. Rule as the data show it: active = 2 or more and inactive = the rest. Repeats in this data set agree poorly, so a single value says little.
What follows are molecules tested on Lgr5 (MarsCy1-Lgr5-EGFP, U2OS) (assay: cell-surface Lgr5 expression (SCi1 fluorescence, background-subtracted) relative to WT DMSO (fold of DMSO control); higher = more Lgr5 at the plasma membrane). Conditions: U2OS MarsCy1-Lgr5-EGFP stable; treatment time: overnight; library: ActiProbe-5K (TimTec); 25 µM.

cell-surface Lgr5 expression, inactive:
Nc1nc2ccc(OC(F)(F)F)cc2s1 1.31
c1ccc(N/N=C2/C/C(=N\Nc3ccccc3)c3ccccc32)cc1 1.06
N#Cc1ccc(C(O)c2ccc(F)cc2)c(CO)c1 (stereo unspecified) 1.42
Cc1nn(CC#N)c(C)c1Cl 1.2
N=C1NC(=O)/C(=C\c2ccco2)S1 1.18
Nc1nnc(CS(=O)(=O)CC(=O)O)s1 1.17
N#CC1=C(N)SC(N)=C(C#N)C1c1ccc(F)c(Br)c1 1.22
Nc1cc2[nH]c(=O)[nH]c2cc1N 1.16
CN(CC12CC3CC(CC(C3)C1)C2)S(=O)(=O)N1CCCCC1 0.917
O=c1c2ccccc2oc2cccnc12 1.01
COCc1c(C)cc(C)c(/C=N\O)c1C 1.15
Cc1ccc(C2=NNC(C)(c3ccc(C4CCCCC4)cc3)S2)cc1 (stereo unspecified) 0.355
C[n+]1noc([O-])c1-c1ccccc1 1.09
OC(Cn1c2ccccc2c2ccccc21)C[n+]1cccc2ccccc21 (stereo unspecified) 1.65
Cc1sc(N)c(C(N)=O)c1C 1.18
CCn1cc(Cn2cc(N)cn2)cn1 1.3
N#Cc1cc2n[nH]nc2cc1C#N 1.02
COc1cccnc1Br 1.03
O=S(=O)([O-])c1cc(-c2nnc(-c3ccccn3)nc2-c2ccc(S(=O)(=O)[O-])o2)co1 0.946
Cc1ccc(-c2cn3cccc(C)c3n2)cc1 0.887
C=CCn1c(-c2ccccc2Br)n[nH]c1=S 1.11
Nc1ccc2nn(-c3ccc(Cl)cc3)nc2c1 0.928
CC1CCN(C(=S)NC2CCCCC2)CC1 1.25
c1ccc(-c2ccc(-c3ccccn3)nn2)nc1 0.56
O=C(NC1C2CC3CC(C2)CC1C3)c1cnccn1 (stereo unspecified) 1.13
COC(=O)N1C(=O)OC2CSCC21 (stereo unspecified) 1.18
O=C1c2ccccc2-c2nn3nnnc3nc21 1.54
COC(=O)c1c(NC(=O)CCCC(=O)O)sc2c1CCC2 1.04
FC(F)(F)COc1nc(NCCOC23CC4CC(CC(C4)C2)C3)nc(N2CCCCC2)n1 0.871
O=C1NC(=O)C(c2ccccc2)(c2ccccc2)N1 1.12
CCC(C)(C#CCN1CCCC1)OCCC#N (stereo unspecified) 1.2
Cc1ccc(S(=O)(=O)N2CCN(S(C)(=O)=O)C2C)cc1 (stereo unspecified) 1.27
Cn1c(COc2ccccc2)nn(CN2CCC3(CC2)OCCO3)c1=S 1.43
Cc1sc2ncnc(Cl)c2c1C 1.39
C=CCN(CC=C)S(=O)(=O)c1ccc(OC)cc1 1.08
O=[N+]([O-])c1c(Cl)ncnc1Cl 1.16
NC(=O)c1nc(S)n(CC2CCCO2)c1N (stereo unspecified) 1.23
Nc1n/c(=N/c2ccccc2)ss1 0.922
C/C(O)=C1/C(=O)NC(=O)SC1=O 1.41
CS(=O)(=O)N1CCc2ccccc2C1 1.06
CC1(C)CC2(CC(C)(C)N1)OC(=O)N(CCO)C2(C)O (stereo unspecified) 1.09
Brc1cccc(C2=Nn3c(nnc3-c3ccccn3)SC2)c1 1.46
CCOc1ccc2c(c1)-c1c(ssc1=S)C(C)(C)N2C 1.26
O=S1(=O)N=C(N/N=C/c2cc(Cl)ccc2O)c2ccccc21 0.817
C#CCN1C(=O)S/C(=C\c2ccc(N3CCOCC3)o2)C1=O 0.992
CCOC(=O)c1sc(N2N=C(C)/C(=C/c3ccc(C)o3)C2=O)nc1C 1.1
Brc1coc2ccccc12 1.11
Clc1cnc2nc(-c3ccccn3)[nH]c2c1 0.934
N#CCNS(=O)(=O)c1cc(Cl)ccc1Cl 1.18
Nc1nc(-c2ccncc2)n[nH]1 0.857
Cc1cc2nc(S)[nH]c2cc1C 1.11
Cc1c(C#N)c(N)n(Cc2ccco2)c1C 1.68
CC(=O)CN1C(Br)=NC2C1C(=O)N(C)C(=O)N2C (stereo unspecified) 0.986
O=C(c1ccc(-c2cccs2)[nH]1)C(F)(F)F 1.12
CC(C)(C)C1=NOC(O)(C(F)(F)F)C1 (stereo unspecified) 1.06
COc1cc(-c2nnc(SCc3ccon3)o2)cc(OC)c1OC 1.75
Cc1ccc(/C=N/n2c(C)cc(C)c(C#N)c2=O)s1 0.973
Cc1oc(C(=O)O)cc1CSC(C)C(=O)O (stereo unspecified) 1.33
C#Cc1ccc(-c2ccc(CCCCCCCCC)cc2)cc1 1.6
O=C(Nc1ccc2c(c1)OCO2)C(=O)NC1CC1 1.05
Cn1c(C(C)(C)C)nc(N)nc1=O 1.05
N#CC1=C(N)C(C#N)(C#N)[C@H](c2ccc(F)cc2)[C@H]2COCC=C12 0.969
CN(C)CCCC1(c2ccc(F)cc2)OCc2cc(C#N)ccc21 (stereo unspecified) 1.39
O=C(Nc1ccc2c(c1)OC1(CCCCC1)O2)C1CCC(=O)N1C(=O)C1CCCN1 (stereo unspecified) 1.14
N#CCSc1sc2c(O)cc(=O)[nH]c2c1C#N 1.35
s1cc(nc1/N=C(\N)N)CS(N)=N.Cl (stereo unspecified) 1.21
Brc1ccccc1-c1nnc(C(c2ccccc2)c2ccccc2)o1 0.986
Cc1nnc(SCC(=O)Nc2nccs2)s1 1.15
Fc1ccc(CSc2nc(SCc3ccc(F)cc3)nc(SCc3ccc(F)cc3)n2)cc1 1.12
N#CCN(CC#N)S(=O)(=O)c1ccc(Br)cc1 1.02
CCCCc1c(C)nc(N/N=C/c2ccco2)nc1O 1.81
N#CCSc1nsc2sc(C#N)c(N)c12 1.11
[O-][n+]1onc2c1CCc1c-2nc(-c2ccco2)n1O 1.38
N#Cc1ncc(Br)cn1 1.64
Cn1c(=S)n(CN2CCOCC2)c2ccccc21 1.26
O=S(=O)(NC1CC1)c1ccc(OCCn2cnnn2)cc1 0.999
O=C1c2ccccc2C(O)(O)C1(O)C1(O)C(=O)c2ccccc2C1(O)O (stereo unspecified) 1.26
CC(C)(C)[C@@H]1CCCC[C@H]1N 0.971
O=C(O)/C=C\C(=O)NNC(=O)C1CCCCC1 1.27
O=c1c2c3c(sc2nc(S)n1C1CCCCC1)CCCC3 0.654
C=C(C)C#CCN1CCCCC1 1.05
CS(=O)(=O)c1ccc2nc(NS(=O)(=O)c3ccccc3)sc2c1 1.03
Cl.c1ccc(CNc2nc(NCc3ccccc3)c3ccccc3n2)cc1 0.52
O=[N+]([O-])c1ccc2c(c1)CSc1nc3ccccc3n1-2 1.45
CCN1C(=O)/C(=C2\SC(=S)N(C3CCS(=O)(=O)C3)C2=O)c2ccccc21 (stereo unspecified) 1.82
Cc1ccc(/C=N/n2c(S)nnc2-c2ccco2)o1 1.09
CCOC(=O)c1sc(N2N=C(C)/C(=C/c3cccs3)C2=O)nc1C 1.04
COc1cc(/C=N/n2c(S)nnc2-c2cc(OC)c(OC)c(OC)c2)cc(OC)c1OC 1.35
Cc1nc2nc(S(=O)(=O)N(CC(C)C)CC(C)C)nn2c(C)c1C 1.22
O=S(=O)(Nc1ccc(F)c(F)c1)c1ccc(Cl)s1 1.18
O=C(N/N=C/C=C\c1ccco1)c1cccs1 1.04
O=C(CCCCCCCC(=O)N/N=C/c1cc(Br)cs1)N/N=C\c1cc(Br)cs1 1.06
COc1ccc(NS(C)(=O)=O)c(OC)c1 0.981
C=CCSc1nc2c(cc1C#N)CCC2 1.28
Cn1c(=O)n(C)c2c(=O)[nH]ccc21 1.29
CSc1nsc(N)n1 1.44
O=c1cc(O)c2sc3[nH]c(=O)c([N+](=O)[O-])cc3c2[nH]1 0.851
CC(=O)CC(=O)c1cccs1 1.12
C1(/C(OC(OC1=O)(C)C)=O)=C1/NCCCCC1 1.28
O=C(O)c1[nH]nc([N+](=O)[O-])c1Br 1.12
Cc1cc2c(cc1Br)NC(=O)/C2=N/O 0.78
CN(C)c1ccc(O)o1.Cl 1.22
CC(=O)OCCC(O)C1=CCC2C3CC=C4CC(OC(C)=O)CCC4(C)C3CCC12C (stereo unspecified) 1.66
Cn1cc(-c2n[nH]cc2Cl)cn1 0.922
CC(C)Cc1nnc(NC(=O)CC(C)(C)C)s1 1.15
CSc1nc2nnc(-c3nc4ccccc4[nH]3)c(N)n2n1 1.09
O=c1cc(-c2cc(Cl)cc3c2OCOC3)oc2ccc(Cl)cc12 1.17
O=C(CN1CCCC1)Nc1nc2c(s1)C(=O)CC(O)(O)C2 0.995
O=c1[nH]cnc2c1oc1ccc(Br)cc12 1.27
O=C(NC1CCCCCC1)N1CCOCC1 1.02
COc1ccc(C2CS(=O)(=O)CS(=O)(=O)C2)cc1OC 1.2

Quoted from the listing for reference:
cell-surface Lgr5 expression, inactive:
Cc1cc2c(cc1Br)NC(=O)/C2=N/O 0.78
CN(C)c1ccc(O)o1.Cl 1.22
CC(=O)OCCC(O)C1=CCC2C3CC=C4CC(OC(C)=O)CCC4(C)C3CCC12C (stereo unspecified) 1.66
Cn1cc(-c2n[nH]cc2Cl)cn1 0.922

3 structures already listed, ordered by count of non-hydrogen atoms, largest number first:
cell-surface Lgr5 expression, inactive:
OC(Cn1c2ccccc2c2ccccc21)C[n+]1cccc2ccccc21 (stereo unspecified) 1.65
COC(=O)c1c(NC(=O)CCCC(=O)O)sc2c1CCC2 1.04
Nc1ccc2nn(-c3ccc(Cl)cc3)nc2c1 0.928

From the supplement of paper PMC4683952
